Results are given in words; binding and its absence hold for the method and conditions named. Some results given as binding are weak or reduced against the parent protein; the word gives no strength.
What was measured:
[1] = target: T1, human IL-23 (human, UniProt P29460 23-328; Q9NPF7 20-189); assay: crystal structure, figure legend
T1 construct: Secreted from Sf9 cells for the crystal structure; One molecule is used for all three; also called Interleukin-23
T1 sequence (looked up) 1: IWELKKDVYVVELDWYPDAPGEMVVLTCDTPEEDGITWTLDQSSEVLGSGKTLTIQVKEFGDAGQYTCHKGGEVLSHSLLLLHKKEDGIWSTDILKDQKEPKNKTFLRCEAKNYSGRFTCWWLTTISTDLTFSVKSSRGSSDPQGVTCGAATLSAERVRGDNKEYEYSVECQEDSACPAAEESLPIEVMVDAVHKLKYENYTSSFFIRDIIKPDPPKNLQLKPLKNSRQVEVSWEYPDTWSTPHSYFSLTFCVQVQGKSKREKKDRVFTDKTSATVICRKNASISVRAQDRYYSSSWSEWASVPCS
T1 sequence (looked up) 2: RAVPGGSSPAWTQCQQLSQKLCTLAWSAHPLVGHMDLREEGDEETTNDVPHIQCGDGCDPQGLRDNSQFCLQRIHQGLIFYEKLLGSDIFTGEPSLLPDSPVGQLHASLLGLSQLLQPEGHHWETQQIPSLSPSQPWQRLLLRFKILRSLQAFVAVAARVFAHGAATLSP

[2] = target: T1, human IL-23; assay: crystal structure
[3] = target: T1, human IL-23; assay: size exclusion chromatography of the complex

binding [1]: binds
binding [2]: binds
binding [3]: binds
B1: Adnectin 2 (designed binder)
chain: MGVSDVPRDLEVVAATPTSLLISWEHDYPYRRYYRITYGETGGNSPVQEFTVPKDVDTATISGLKPGVDYTITVYAVTSSYKYDMQYSPISINYRTEIDKPSQHHHHHH
notes: also called anti-IL-23 Adnectin; ATI-000929
